Test results as given in paper PMC4520684.

Chains of the proteins cited; added tags and fusions are not shown. Lines headed by an entry give the natural chain unless they say otherwise; changes in a name come on top.
UniProt O95390: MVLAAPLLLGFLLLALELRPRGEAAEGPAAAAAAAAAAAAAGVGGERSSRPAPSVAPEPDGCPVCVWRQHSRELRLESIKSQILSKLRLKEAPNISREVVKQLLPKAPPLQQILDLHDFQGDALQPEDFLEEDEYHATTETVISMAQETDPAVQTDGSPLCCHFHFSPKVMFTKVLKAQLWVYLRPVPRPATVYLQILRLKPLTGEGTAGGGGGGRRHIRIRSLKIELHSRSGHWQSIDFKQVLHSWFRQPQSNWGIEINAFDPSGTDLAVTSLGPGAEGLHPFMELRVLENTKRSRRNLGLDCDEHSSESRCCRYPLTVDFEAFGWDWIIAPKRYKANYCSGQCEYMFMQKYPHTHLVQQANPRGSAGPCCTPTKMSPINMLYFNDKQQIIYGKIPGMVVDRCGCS
UniProt O14793: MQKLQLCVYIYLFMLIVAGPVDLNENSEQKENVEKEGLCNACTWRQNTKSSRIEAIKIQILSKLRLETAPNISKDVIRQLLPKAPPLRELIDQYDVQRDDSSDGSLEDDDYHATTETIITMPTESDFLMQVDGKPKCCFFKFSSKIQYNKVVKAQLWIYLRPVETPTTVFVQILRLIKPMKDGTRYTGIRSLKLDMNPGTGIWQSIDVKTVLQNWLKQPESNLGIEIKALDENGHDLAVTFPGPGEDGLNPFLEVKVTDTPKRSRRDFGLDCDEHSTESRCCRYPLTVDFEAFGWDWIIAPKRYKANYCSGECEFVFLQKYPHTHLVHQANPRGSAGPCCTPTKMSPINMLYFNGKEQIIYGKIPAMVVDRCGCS

Assays:
[1] = molecular target: HA-tagged full-GDF11 (prodomain + ligand) (UniProt O95390); experiment: co-IP; COS-7 cells co-transfected with FLAG-tagged inhibitory core and V5- or HA-tagged ligand or receptor; whole cell extracts (50 mM Tris-HCl pH 7.4, 50 mM NaCl, 1% Triton X-100, 100 mM octyl glucoside) precipitated with anti-FLAG, anti-V5 or anti-HA agarose and immunoblotted
[2] = molecular target: V5-tagged full-myostatin (prodomain + ligand) (UniProt O14793); experiment: as above

binding [1]: binds
binding [2]: binds
Binder: CTWRQNTKSSRIEAIKIQILSKLRLETAP (domain or fragment) [FLAG-tagged inhibitory core of the myostatin prodomain]

No constants are given. Whether binding was seen depends on the method and setting. In cells and extracts the contact can be indirect. A result given as binding can be weak or reduced; the word gives no strength. Where a sequence is shown, tags or fusion partners need not be part of it.
